Source: article PMC12170880
Results are given in words; binding and its absence hold for the method and conditions named. In cells and extracts the contact can be indirect. A yes stands for co-enrichment or nearness to the bait. Other partners may have been found. For part of these data: No binding means not detected with the bait. For part of these data: Sequences can lack the tags named with a protein. Values belong to the molecule of their own block, whether it stands above or below them.

Sequences of proteins named here, by UniProt entry; tags and fusion partners are left off. A change or cut given only in a name is not applied to a line headed by its entry.
UniProt O22467: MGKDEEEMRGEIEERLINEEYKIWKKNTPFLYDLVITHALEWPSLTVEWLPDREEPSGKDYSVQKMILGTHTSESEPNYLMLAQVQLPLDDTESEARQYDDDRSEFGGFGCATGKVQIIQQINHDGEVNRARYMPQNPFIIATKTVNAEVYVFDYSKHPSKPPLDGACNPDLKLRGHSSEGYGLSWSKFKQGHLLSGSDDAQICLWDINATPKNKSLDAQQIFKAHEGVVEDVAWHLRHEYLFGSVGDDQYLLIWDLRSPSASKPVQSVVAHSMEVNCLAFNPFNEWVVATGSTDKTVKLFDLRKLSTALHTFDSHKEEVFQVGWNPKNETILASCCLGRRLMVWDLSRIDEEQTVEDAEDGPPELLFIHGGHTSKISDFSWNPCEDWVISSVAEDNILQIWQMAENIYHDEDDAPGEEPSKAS
UniProt O48686: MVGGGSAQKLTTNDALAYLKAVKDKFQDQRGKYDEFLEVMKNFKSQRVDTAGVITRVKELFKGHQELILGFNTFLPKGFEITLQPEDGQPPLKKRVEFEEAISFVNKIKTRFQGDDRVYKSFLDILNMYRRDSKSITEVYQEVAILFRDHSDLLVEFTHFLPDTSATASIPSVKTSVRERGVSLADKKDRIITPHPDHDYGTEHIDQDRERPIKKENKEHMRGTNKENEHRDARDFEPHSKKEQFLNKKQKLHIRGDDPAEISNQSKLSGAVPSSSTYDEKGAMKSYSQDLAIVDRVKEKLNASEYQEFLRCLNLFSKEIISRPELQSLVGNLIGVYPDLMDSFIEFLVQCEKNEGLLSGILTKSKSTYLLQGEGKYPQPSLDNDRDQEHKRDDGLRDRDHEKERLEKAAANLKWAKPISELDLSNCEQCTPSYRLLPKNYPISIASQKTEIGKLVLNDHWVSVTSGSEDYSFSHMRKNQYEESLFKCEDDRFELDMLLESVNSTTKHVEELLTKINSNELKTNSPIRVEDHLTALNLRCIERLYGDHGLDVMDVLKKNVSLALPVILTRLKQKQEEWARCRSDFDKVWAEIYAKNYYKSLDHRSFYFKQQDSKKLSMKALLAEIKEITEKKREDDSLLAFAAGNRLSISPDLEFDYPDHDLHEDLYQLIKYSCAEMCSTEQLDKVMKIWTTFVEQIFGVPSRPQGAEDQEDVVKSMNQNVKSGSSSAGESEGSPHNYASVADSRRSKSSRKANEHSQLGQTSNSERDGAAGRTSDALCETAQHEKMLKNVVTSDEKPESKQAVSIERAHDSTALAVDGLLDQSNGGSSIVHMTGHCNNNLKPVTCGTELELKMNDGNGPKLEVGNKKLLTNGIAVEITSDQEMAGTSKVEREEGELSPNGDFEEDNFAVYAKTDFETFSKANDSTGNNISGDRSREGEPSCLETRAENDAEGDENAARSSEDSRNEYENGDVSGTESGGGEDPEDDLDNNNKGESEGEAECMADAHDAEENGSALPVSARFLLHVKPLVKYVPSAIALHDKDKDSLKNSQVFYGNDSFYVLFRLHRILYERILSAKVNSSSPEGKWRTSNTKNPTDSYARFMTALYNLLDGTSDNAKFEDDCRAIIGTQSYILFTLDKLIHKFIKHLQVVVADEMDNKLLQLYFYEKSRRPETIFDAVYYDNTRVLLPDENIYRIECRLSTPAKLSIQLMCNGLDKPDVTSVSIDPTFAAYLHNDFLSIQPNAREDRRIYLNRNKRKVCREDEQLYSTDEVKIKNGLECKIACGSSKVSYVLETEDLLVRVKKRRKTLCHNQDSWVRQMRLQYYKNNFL
UniProt O04539: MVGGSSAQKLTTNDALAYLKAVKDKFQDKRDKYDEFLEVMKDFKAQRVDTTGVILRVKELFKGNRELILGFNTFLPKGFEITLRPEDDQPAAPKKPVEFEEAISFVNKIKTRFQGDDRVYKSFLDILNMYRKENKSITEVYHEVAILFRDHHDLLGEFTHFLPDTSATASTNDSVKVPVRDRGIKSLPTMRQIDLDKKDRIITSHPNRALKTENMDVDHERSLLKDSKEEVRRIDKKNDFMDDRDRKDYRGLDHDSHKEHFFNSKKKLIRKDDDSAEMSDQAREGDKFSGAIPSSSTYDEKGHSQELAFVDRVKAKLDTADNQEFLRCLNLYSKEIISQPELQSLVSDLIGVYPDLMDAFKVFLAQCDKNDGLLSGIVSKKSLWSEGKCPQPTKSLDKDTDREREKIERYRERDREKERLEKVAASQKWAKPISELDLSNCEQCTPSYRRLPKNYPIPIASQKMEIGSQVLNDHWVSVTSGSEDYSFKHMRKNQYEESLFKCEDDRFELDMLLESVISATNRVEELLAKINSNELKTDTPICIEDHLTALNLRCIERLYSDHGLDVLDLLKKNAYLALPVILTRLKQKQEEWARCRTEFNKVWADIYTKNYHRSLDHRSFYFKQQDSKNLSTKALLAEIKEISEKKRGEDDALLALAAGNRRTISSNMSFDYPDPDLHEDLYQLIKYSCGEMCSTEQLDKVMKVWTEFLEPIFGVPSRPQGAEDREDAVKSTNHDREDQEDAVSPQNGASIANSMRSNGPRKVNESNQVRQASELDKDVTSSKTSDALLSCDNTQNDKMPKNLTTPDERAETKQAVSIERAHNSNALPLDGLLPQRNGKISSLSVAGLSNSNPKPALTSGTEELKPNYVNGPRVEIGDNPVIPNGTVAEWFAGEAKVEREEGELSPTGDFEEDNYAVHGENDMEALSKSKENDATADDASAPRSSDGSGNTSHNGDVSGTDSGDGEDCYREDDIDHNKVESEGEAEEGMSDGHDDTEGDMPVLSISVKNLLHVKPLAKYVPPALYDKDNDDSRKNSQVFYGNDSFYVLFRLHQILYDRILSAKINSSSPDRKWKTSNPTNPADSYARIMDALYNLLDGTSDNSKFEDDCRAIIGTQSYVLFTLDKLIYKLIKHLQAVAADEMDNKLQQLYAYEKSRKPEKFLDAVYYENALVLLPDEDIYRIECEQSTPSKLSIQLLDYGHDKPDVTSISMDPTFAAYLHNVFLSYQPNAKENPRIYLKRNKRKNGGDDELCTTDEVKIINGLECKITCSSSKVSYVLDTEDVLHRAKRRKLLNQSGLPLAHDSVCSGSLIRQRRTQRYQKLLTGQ
UniProt Q9XIE1: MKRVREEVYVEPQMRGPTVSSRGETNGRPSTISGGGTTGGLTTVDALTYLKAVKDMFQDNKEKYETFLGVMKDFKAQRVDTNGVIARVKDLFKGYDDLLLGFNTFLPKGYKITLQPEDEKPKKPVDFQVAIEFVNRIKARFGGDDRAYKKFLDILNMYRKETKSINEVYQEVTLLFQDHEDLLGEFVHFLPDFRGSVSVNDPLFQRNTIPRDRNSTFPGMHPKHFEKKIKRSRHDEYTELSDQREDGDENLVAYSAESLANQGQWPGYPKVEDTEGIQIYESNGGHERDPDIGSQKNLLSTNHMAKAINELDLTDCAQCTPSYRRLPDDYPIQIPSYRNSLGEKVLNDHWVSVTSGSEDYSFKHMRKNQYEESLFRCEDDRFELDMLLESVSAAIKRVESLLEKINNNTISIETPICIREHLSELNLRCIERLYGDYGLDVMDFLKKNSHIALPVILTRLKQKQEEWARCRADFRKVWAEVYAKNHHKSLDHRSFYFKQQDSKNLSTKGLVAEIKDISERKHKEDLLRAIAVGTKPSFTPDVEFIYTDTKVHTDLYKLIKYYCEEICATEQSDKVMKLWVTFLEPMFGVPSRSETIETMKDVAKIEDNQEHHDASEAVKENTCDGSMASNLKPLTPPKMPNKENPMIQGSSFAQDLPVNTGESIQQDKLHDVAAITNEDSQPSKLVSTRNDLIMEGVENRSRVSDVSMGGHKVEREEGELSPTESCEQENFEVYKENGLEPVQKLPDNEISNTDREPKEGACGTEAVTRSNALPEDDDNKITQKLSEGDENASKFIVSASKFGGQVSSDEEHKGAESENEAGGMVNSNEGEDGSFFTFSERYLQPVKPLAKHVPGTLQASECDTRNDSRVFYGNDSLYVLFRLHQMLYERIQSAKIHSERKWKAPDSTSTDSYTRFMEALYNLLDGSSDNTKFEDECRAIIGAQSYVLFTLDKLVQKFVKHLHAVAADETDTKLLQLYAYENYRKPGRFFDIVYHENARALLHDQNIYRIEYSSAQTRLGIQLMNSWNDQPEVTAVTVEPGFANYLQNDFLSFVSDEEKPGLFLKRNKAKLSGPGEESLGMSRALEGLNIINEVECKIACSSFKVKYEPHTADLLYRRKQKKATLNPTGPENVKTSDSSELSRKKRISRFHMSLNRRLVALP
UniProt Q9XIK6: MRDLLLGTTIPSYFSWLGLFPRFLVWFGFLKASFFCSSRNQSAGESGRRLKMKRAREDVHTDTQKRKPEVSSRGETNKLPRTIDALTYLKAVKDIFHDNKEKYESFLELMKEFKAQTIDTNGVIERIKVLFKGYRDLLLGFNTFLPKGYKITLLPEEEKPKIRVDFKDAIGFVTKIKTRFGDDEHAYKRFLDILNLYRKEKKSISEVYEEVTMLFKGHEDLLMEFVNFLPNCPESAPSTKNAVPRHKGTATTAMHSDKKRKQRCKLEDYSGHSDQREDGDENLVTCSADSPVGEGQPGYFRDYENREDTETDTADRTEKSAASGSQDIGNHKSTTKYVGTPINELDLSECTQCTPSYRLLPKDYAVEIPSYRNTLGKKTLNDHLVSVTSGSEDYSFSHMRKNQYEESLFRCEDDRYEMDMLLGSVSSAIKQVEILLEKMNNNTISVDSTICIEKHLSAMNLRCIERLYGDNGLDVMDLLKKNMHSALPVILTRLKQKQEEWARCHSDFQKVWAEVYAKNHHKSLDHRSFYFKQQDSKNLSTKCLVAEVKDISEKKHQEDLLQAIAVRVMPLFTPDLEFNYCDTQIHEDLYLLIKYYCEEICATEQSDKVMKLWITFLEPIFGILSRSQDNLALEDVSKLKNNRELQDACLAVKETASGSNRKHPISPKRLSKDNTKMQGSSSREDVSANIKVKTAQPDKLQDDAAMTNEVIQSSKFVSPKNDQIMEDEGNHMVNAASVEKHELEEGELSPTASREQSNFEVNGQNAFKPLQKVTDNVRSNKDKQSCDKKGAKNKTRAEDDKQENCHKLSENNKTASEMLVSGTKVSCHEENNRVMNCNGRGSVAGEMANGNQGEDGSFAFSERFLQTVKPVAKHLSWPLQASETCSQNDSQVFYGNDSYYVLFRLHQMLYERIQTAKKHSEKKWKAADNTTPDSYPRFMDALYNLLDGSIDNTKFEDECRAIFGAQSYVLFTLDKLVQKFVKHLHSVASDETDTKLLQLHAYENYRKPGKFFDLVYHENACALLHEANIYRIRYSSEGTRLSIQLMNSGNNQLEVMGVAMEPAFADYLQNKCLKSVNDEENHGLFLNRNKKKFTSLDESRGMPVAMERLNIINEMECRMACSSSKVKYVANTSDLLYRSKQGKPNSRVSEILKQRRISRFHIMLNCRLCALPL
UniProt F4I0M4: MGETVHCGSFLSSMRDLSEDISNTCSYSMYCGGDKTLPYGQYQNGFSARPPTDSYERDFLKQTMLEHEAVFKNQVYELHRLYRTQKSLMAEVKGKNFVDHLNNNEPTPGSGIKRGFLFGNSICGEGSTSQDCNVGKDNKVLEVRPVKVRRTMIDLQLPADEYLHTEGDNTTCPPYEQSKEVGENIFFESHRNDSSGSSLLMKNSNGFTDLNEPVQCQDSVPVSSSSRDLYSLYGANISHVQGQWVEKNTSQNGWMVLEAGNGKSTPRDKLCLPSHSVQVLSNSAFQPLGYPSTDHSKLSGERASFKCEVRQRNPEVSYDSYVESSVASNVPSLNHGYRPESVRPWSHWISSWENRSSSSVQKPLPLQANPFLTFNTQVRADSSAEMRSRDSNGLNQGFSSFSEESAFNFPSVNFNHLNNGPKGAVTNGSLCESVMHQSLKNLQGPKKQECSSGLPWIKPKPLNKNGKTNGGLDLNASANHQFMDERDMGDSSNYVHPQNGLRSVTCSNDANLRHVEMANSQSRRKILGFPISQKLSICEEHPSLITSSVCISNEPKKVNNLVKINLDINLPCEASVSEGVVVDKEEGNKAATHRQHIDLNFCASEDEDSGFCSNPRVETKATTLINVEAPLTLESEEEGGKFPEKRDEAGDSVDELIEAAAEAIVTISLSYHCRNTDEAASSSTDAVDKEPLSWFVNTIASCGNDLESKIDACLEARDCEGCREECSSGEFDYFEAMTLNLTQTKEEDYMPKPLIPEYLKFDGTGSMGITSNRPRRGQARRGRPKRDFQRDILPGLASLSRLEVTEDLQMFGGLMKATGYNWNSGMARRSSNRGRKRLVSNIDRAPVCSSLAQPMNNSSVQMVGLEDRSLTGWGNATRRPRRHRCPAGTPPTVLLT

How the values were obtained:
Assay in all cases: affinity purification with mass spectrometry; lysate of seedlings and inflorescences of transgenic Arabidopsis expressing the tagged bait; 50 mM Tris-HCl pH 7.5, 150 mM NaCl, 5 mM MgCl2, 10% glycerol, 0.1% NP-40; anti-Flag M2 agarose 2.5 h at 4 °C, five washes, elution with 3×Flag peptide, gel bands analysed by mass spectrometry
[1] = molecular target: HDC1 (Arabidopsis thaliana) (UniProt F4KB26)
[2] = molecular target: MSI1 (Arabidopsis thaliana) (UniProt O22467)
[3] = molecular target: T1, RPD3-type histone deacetylase HDA19 (Arabidopsis thaliana) (UniProt O22446)
T1 sequence: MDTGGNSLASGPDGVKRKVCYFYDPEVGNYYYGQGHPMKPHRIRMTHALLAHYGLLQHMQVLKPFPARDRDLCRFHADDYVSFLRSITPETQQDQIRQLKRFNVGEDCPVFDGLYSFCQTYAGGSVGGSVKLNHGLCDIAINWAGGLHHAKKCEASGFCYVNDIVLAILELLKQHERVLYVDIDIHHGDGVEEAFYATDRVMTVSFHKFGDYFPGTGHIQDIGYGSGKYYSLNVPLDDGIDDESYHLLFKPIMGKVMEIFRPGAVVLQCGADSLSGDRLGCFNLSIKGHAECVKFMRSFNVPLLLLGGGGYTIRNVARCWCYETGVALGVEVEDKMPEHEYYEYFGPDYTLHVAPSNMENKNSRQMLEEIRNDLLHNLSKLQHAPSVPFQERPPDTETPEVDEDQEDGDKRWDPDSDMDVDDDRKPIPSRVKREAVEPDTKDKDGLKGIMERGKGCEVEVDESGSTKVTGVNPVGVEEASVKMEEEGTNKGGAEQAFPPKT

[4] = molecular target: T2, RPD3-type histone deacetylase HDA6 (Arabidopsis thaliana) (UniProt Q9FML2)
T2 sequence: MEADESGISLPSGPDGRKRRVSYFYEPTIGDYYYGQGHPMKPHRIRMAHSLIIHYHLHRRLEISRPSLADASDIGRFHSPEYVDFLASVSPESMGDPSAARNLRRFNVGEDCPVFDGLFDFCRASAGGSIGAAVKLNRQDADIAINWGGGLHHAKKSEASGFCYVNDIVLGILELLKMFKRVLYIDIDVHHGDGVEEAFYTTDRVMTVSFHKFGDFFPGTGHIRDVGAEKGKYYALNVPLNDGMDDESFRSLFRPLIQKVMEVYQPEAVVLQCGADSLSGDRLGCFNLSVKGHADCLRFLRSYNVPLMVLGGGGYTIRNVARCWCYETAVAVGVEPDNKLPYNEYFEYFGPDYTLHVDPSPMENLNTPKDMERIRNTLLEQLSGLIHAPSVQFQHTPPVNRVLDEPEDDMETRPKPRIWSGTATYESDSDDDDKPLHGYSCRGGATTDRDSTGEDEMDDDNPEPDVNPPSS

[5] = molecular target: SIN3-like protein SNL3 (Arabidopsis thaliana) (UniProt O48686)
[6] = molecular target: SIN3-like protein SNL4 (Arabidopsis thaliana) (UniProt O04539)
[7] = molecular target: SIN3-like protein SNL5 (Arabidopsis thaliana) (UniProt Q9XIE1)
[8] = molecular target: SIN3-like protein SNL6 (Arabidopsis thaliana) (UniProt Q9XIK6)
[9] = molecular target: HDA19-interacting protein 1 (HDIP1) (Arabidopsis thaliana) (UniProt F4I0M4)
[10] = molecular target: HDA19-interacting protein 2 (HDIP2) (Arabidopsis thaliana) (UniProt Q9FZE6)
[11] = molecular target: HDA19-interacting protein 3 (HDIP3) (Arabidopsis thaliana) (UniProt Q9LMG4)

- binding [1]: binds
- binding [2]: binds
- binding [3]: binds
- binding [4]: no binding
- binding [5]: binds
- binding [6]: binds
- binding [7]: binds
- binding [8]: binds
Molecule: HDA19-interacting protein 2 (HDIP2) (from UniProt Q9FZE6)

- binding [1]: binds
- binding [2]: binds
- binding [3]: binds
- binding [4]: no binding
- binding [5]: binds
- binding [6]: binds
- binding [7]: binds
- binding [8]: binds
Molecule: HDA19-interacting protein 3 (HDIP3) (from UniProt Q9LMG4)

- binding [9]: binds
- binding [10]: binds
- binding [11]: binds
Molecule: HDC1 (from UniProt F4KB26)

- binding [9]: binds
- binding [10]: binds
- binding [11]: binds
Molecule: MSI1 (from UniProt O22467 1-424)

- binding [9]: binds
- binding [10]: binds
- binding [11]: binds
Molecule: SIN3-like protein SNL5 (from UniProt Q9XIE1 1-1162)

- binding [9]: binds
- binding [10]: binds
- binding [11]: binds
Molecule: SIN3-like protein SNL6 (from UniProt Q9XIK6 1-1173)

The remaining lines, values behind:

Molecule: HDA19-interacting protein 1 (HDIP1) (from UniProt F4I0M4)
- binding [1]: binds
- binding [2]: binds
- binding [3]: binds
- binding [4]: no binding
- binding [5]: binds
- binding [6]: binds
- binding [7]: binds
- binding [8]: binds

Molecule: SIN3-like protein SNL3 (from UniProt O48686 1-1330)
- binding [9]: binds
- binding [10]: binds
- binding [11]: binds

Molecule: SIN3-like protein SNL4 (from UniProt O04539 1-1326)
- binding [9]: binds
- binding [10]: binds
- binding [11]: binds

B1: RPD3-type histone deacetylase HDA19 (enzyme, UniProt O22446 1-501)
chain: T1 sequence
- binding [9]: binds
- binding [10]: binds
- binding [11]: binds
